# Some of the results follow. These are further read-outs of the screen, such as a control signal, another cell line or another target. No call is given for them. Most of these compounds were active or inconclusive in the main read-out, so they are no random draw. Words in brackets tell the shape of the fitted curve; partial curves, single points and poor fits give uncertain potencies.
# Experiment: IkB Signaling
# Details: ABC-DLBCL IkBa-CBG/CBR dual luciferase ratio (green luciferase fused to IkBa over red control in OCI-Ly3 lymphoma cells), 4 h
# Method in brief: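 In this assay, an IκBα–CBG68 fusion accumulates when IKK-driven degradation is blocked; native CBR normalizes for cell number. OCI-Ly3 cells were treated 4 h with compound and doxycycline, then green and red light read after Chroma-Glo addition.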
# [1] = measured here: control luc red channel unless noted
# [2] = measured here: IkB-luc green channel
# [3] = measured here: control luc red channel
compound,measurement,setting,value
O=S(=O)(c1ccc2[nH]c3c(c2c1)CCCCC3)N1CCN(c2cccc(Cl)c2)CC1,AC50,[1],"3.98 µM [falling, full curve]"
Cc1oc(-c2cccc(Cl)c2)nc1CN1CCCC(C(=O)NCc2ccc(Cl)cc2)C1 (centres undefined),AC50,[1],"20 µM [falling, partial curve]"
Cc1cc(C)n(-c2ccc(C(=O)Nc3sccc3C(N)=O)cc2)n1,AC50,[1],"25.1 µM [falling, partial curve]"
Cc1cc(C)cc(OCC(=O)N(Cc2ccc(Cl)cc2)CC2CCCO2)c1 (centres undefined),AC50,[1],"31.6 µM [falling, partial curve]"
c1ccc(CCNc2nc3ccccc3n3nnnc23)cc1,AC50,[1],"3.98 µM [falling, full curve]"
O=C(NC1CCCC1)c1ccc2c(=O)n(Cc3ccccc3)c(SCc3ccccc3)nc2c1,AC50,[1],"0.316 µM [falling, full curve]"
Cc1ccc(Nc2nc(Nc3ccc(C)c(C)c3)nc(N3CCOCC3)n2)cc1C,AC50,[1],"12.6 µM [falling, partial curve]"
CCc1cccc(C)c1NC(=O)C1CCN(S(=O)(=O)Cc2ccccc2)CC1,AC50,[1],"0.0158 µM [rising, full curve, poor fit]"
COCCn1nnnc1C(c1cccs1)N1CCN(c2cc(C)ccc2C)CC1 (centres undefined),AC50,[1],"12.6 µM [falling, partial curve]"
COc1ccc(N2CCN(CCCNC(=O)c3cc(Nc4ccccc4OC)nc4ccccc34)CC2)cc1,AC50,[1],"20 µM [falling, partial curve]"
N#CC1=C(N)C(C#N)(C#N)C(c2cccnc2)C2COCC=C12 (centres undefined),AC50,[1],"39.8 µM [rising, single point] [measured here: IkB-luc green channel]"
COc1ccc(S(=O)(=O)N2CCCC(C(=O)Nc3cccnc3)C2)cc1Cl (centres undefined),AC50,[1],"25.1 µM [falling, single point]"
CCc1ccc(NC(=O)C2=CC(c3ccc4c(c3)OCO4)=NS(=O)(=O)N2C)cc1,AC50,[1],"31.6 µM [falling, single point]"
COc1ccccc1CNC(=O)CSc1ncc2c(n1)-c1cc(Cl)ccc1N(Cc1ccccc1)S2(=O)=O,AC50,[1],"1.26 µM [falling, full curve]"
Cc1c(C(=O)N(Cc2ccc(Cl)cc2)CC2CCCO2)oc2ccc(F)cc12 (centres undefined),AC50,[1],"39.8 µM [falling, single point]"
CCOc1ccc(-c2nc(SCC(=O)NCCCOC)c(-c3ccccc3)[nH]2)cc1,AC50,[1],"25.1 µM [falling, single point]"
CSc1ccc(CC2C(=O)Nc3ccccc32)cc1 (centres undefined),AC50,[1],"25.1 µM [falling, single point]"
O=C(CS(=O)(=O)c1cccc2nsnc12)Nc1cc(F)ccc1F,AC50,[1],"0.0158 µM [falling, full curve, poor fit]"
O=C(Cc1ccccc1F)N1CCC(c2nc3c(nnn3Cc3ccc(F)cc3)c(=O)[nH]2)CC1,AC50,[1],"39.8 µM [falling, single point]"
O=C(NCc1cccnc1)NC1(C(F)(F)F)Oc2ccc(Cl)cc2O1 (centres undefined),AC50,[2],"39.8 µM [rising, single point]"
same,AC50,[3],"3.16 µM [falling, full curve]"
CCCOc1ccc(NC(=O)CC2C(=O)N(c3ccc(C)cc3)C(=O)N2Cc2cccc(OC)c2)cc1 (centres undefined),AC50,[1],"2.51 µM [falling, full curve]"
CCOC(=O)C1CCN(c2c(C(=O)c3ccc(C)cc3)cnc3ccc(F)cc23)CC1,AC50,[1],"39.8 µM [falling, single point]"
O=C(C1CC1)N1CCc2cc(Br)cc(S(=O)(=O)N3CCCCCC3)c21,AC50,[1],"12.6 µM [falling, partial curve]"
CC1CCc2nc(NC(=O)C3CCCO3)sc2C1 (centres undefined),AC50,[1],"12.6 µM [falling, partial curve]"
O=C(NCCCN1CCOCC1)c1cc(-c2ccc(Cl)cc2)on1,AC50,[1],"15.8 µM [falling, partial curve]"
CC1CCC2(CC1)N=C(c1ccccc1)C(=O)N2CC(=O)Nc1ccc(F)c(Cl)c1 (centres undefined),AC50,[1],"12.6 µM [falling, partial curve]"
Cc1nc2ncnn2c(C)c1CCC(=O)N1CCN(c2cccc(Cl)c2)CC1,AC50,[1],"25.1 µM [falling, partial curve, poor fit]"
CC(=O)CC1OC(=O)C(Br)=C1NCc1ccccc1 (centres undefined),AC50,[2],"2.51 µM [rising, partial curve]"
same,AC50,[3],"7.94 µM [falling, partial curve]"
CCc1ccccc1NS(=O)(=O)c1ccc(-c2coc(C)n2)cc1,AC50,[1],"1 µM [rising, full curve]"
Cc1oc2ncnc(N3CCCCC3)c2c1C(=O)Nc1cccc(Cl)c1C,AC50,[1],"39.8 µM [falling, single point]"
Cc1nc2cc(-c3ccccc3)nn2c(C)c1CCC(=O)NCCc1ccccc1,AC50,[1],"5.01 µM [falling, partial curve]"
COc1ccc(CC(=O)Nc2ccc(-c3nc4ccccc4s3)cc2Cl)cc1OC,AC50,[1],"2 µM [rising, partial curve]"
COc1ccc(Nc2cc(C(=O)NCCCN(C)c3ccccc3)c3ccccc3n2)c(OC)c1,AC50,[1],"10 µM [falling, partial curve]"
CCOC(=O)c1ccc(Nc2nc(N)c3cc(OC)c(OC)cc3n2)cc1,AC50,[1],"15.8 µM [falling, partial curve]"
Cc1c(Cl)cccc1-n1c(SCC(=O)NCc2ccccc2)nc2n[nH]c(C)c2c1=N,AC50,[1],"39.8 µM [falling, single point]"
CCCOc1ccc(CNC(=O)C(C)n2nc(C)n3c(cc4occc43)c2=O)cc1 (centres undefined),AC50,[1],"39.8 µM [falling, single point]"
O=C(CSc1nnnn1C1CC2CCC1C2)Nc1ccnc2ccccc12 (centres undefined),AC50,[1],"7.94 µM [falling, partial curve]"
CC1CCN(C(=O)c2ccccc2NC(=O)c2nsc3ccccc23)CC1,AC50,[1],"39.8 µM [falling, partial curve]"
O=C(CC(Nc1ccc(F)cc1)C(=O)O)c1ccccc1 (centres undefined),AC50,[1],"12.6 µM [falling, partial curve]"
COc1ccccc1N1CCN(C(=O)c2nc(-c3ccc(C)cc3)n3c2CCCCC3)CC1,AC50,[1],"0.0251 µM [falling, full curve]"
CCC(C)c1ccc2oc(-c3ccc(NC(=O)Cn4cnc5c(=O)n(C)c(=O)n(C)c54)cc3)nc2c1 (centres undefined),AC50,[1],"0.631 µM [falling, full curve]"
O=C(NC1CC1)c1ccc2c(c1)ncn2C1CCCC1,AC50,[1],"10 µM [falling, partial curve]"
Cc1ccc(NC(=O)c2c(C)oc3ccc(O)c(CN4CCCCC4)c23)cc1,AC50,[1],"39.8 µM [falling, single point]"
Cn1c(C(=O)N2CCCC(C(=O)NCCCSC3CCCCC3)C2)cc2sccc21 (centres undefined),AC50,[1],"15.8 µM [falling, partial curve]"
O=C(CSc1nnc(-c2cccs2)o1)N1CCCCC1,AC50,[1],"12.6 µM [falling, partial curve]"
Cc1cc(C)c(/C=C/c2onc(C)c2S(=O)(=O)N2CCC(C(=O)NCC(C)c3ccccc3)CC2)c(C)c1 (centres undefined),AC50,[1],"15.8 µM [falling, partial curve]"
Cc1ccccc1NS(=O)(=O)c1cccc(-c2nnc(-c3ccccc3)o2)c1,AC50,[1],"39.8 µM [rising, single point] [measured here: IkB-luc green channel]"
CCN(CC)CCNC(=O)c1ccc2c(c1)NC(=O)C(CS(=O)(=O)Cc1ccc(F)cc1Cl)N2 (centres undefined),AC50,[1],"1.26 µM [rising, partial curve]"
Cc1nn(C)c2c1c(-c1ccccc1)cc(=O)n2C(C)C(=O)NCCc1ccc(Cl)cc1 (centres undefined),AC50,[1],"25.1 µM [falling, single point]"
COc1ccc(S(=O)(=O)NCC(c2ccco2)N2CCN(c3ccccc3F)CC2)cc1OC (centres undefined),AC50,[1],"25.1 µM [falling, single point]"
CS(=O)(=O)N1CCC(C(=O)Nc2c(F)cccc2F)CC1,AC50,[1],"39.8 µM [rising, single point] [measured here: IkB-luc green channel]"
Cc1cc(C)cc(NC(=O)CSc2nnc(COc3ccccc3Cl)o2)c1,AC50,[1],"20 µM [falling, single point]"
Cc1ccc(C)c(NC(=O)CCCN2C(=O)COc3ccc(C)cc32)c1,AC50,[1],"10 µM [falling, single point]"
CC(C)(C)OC(=O)N1CCC(c2c(C(=O)Nc3cccc(C(F)(F)F)c3)cnn2-c2ccc(F)cc2F)CC1,AC50,[1],"15.8 µM [falling, partial curve]"
COc1ccc(C)cc1NC(=O)c1cc2c(s1)-c1ccccc1SC2,AC50,[1],"0.631 µM [falling, full curve]"
O=c1c(-c2ccc3c(c2)OCCO3)coc2cc(O)cc(O)c12,AC50,[1],"15.8 µM [falling, single point]"
CC(=O)Nc1cc(C(=O)NCc2ccc(F)cc2)ccc1Sc1ccc(C)cc1,AC50,[1],"39.8 µM [falling, partial curve]"
Cc1nn(-c2ccccc2)c(-n2cccc2)c1C(=O)NCc1ccccc1Cl,AC50,[1],"15.8 µM [falling, partial curve]"
O=C1CN(C(=O)c2ccc(Cl)cc2Cl)C(c2ccc(F)cc2)c2cc(F)ccc2N1 (centres undefined),AC50,[1],"3.98 µM [falling, partial curve]"
CCOC(=O)C1CCN(C(=O)CSc2n[nH]c(-c3ccccc3Cl)n2)CC1,AC50,[1],"25.1 µM [falling, partial curve, poor fit]"
CN1C(=O)CSc2ccc(NC(=O)N3CCc4ccccc43)cc21,AC50,[1],"15.8 µM [falling, partial curve]"
Cc1ccc(CCNC(=O)CN2C(=O)COc3ccc(S(=O)(=O)N4CCCCC4)cc32)cc1,AC50,[1],"39.8 µM [falling, single point]"

# Retrieved one by one from the list above, 3 records:
compound,measurement,setting,value
Cc1ccccc1NS(=O)(=O)c1cccc(-c2nnc(-c3ccccc3)o2)c1,AC50,[1],"39.8 µM [rising, single point] [measured here: IkB-luc green channel]"
COc1ccccc1N1CCN(C(=O)c2nc(-c3ccc(C)cc3)n3c2CCCCC3)CC1,AC50,[1],"0.0251 µM [falling, full curve]"
CC1CCc2nc(NC(=O)C3CCCO3)sc2C1 (centres undefined),AC50,[1],"12.6 µM [falling, partial curve]"

# Source: PubChem BioAssay AID445 (National Center for Advancing Translational Sciences (NCATS), 2006)
